Assay results reported in PubChem BioAssay AID493014 (National Center for Advancing Translational Sciences (NCATS), 2011).
This is one part of the list. Shown are side measurements of this screen, not its main read-out; they come without a call. Most of these compounds were active or inconclusive in the main read-out, so they are no random draw. Words in brackets tell the shape of the fitted curve; partial curves, single points and poor fits give uncertain potencies.

Experiment: qHTS Assay to Find Inhibitors of Chronic Active B-Cell Receptor Signaling
Conditions: ABC-DLBCL IkBa-CBG/CBR reporter, luminescence ratio (green luciferase fused to IkBa over red control in TMD8 lymphoma cells), 4 h
Method in brief: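 TMD8 ABC-DLBCL cells carrying doxycycline-inducible green luciferase fused to IkappaBalpha plus unfused red luciferase were exposed to compounds (up to 46 uM) for 4 hrs at 37C. Activity came from the overlap-corrected green/red luminescence ratio.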

[1] = measured here: CBR red luminescence, cell number
[2] = measured here: IkBa-CBG green luminescence

| SMILES | AC50 [1] | AC50 [2] |
| --- | --- | --- |
| COc1ccc2nc(Nc3nc(-c4ccncc4)cs3)sc2c1 | 0.794 µM [rising, full curve, poor fit] | – |
| Cc1ccccc1C(=O)Nc1ccc2nc3n(c(=O)c2c1)CCC3 | 13 µM [falling, partial curve, poor fit] | – |
| CCOC(=O)c1ccc(-c2c(C(=O)OCC)oc3cc(O)c(CC)cc3c2=O)o1 | 2.31 µM [falling, partial curve, poor fit] | 18.4 µM [falling, single point] |
| CCOC(=O)c1c(CN2CCCCC2)n(C)c2cc(Br)c(O)cc12 | 20.6 µM [rising, single point] | – |
| CC(C)CCNC(=S)Nc1ccc([N+](=O)[O-])cc1 | 1.64 µM [rising, partial curve] | 32.6 µM [rising, partial curve, poor fit] |
| CCOC(=O)c1oc2ccc(CNC3CCCCC3)c(Cl)c2c1C | 5.17 µM [falling, partial curve, poor fit] | – |
| CNC(=O)c1cc(C(=O)c2c(Cl)cccc2Cl)c[nH]1 | 4.47 µM [rising, single point] | – |
| S=C(NC1CCCCC1)N1CCN(c2ncccn2)CC1 | 15.8 µM [rising, single point] | – |
| COCCCN1C(=O)c2[nH]nc(-c3cc(C)cc(C)c3O)c2C1c1ccc(O)c(OC)c1 (stereo not drawn) | 35.5 µM [falling, single point] | – |
| CN(C)CC(CCC(CN(C)C)C(O)(c1ccccc1)c1ccccc1)C(O)(c1ccccc1)c1ccccc1 (stereo not drawn) | 7.94 µM [falling, partial curve] | – |
| O=C(CCCc1ccccc1)c1ccc2c(c1)OCCO2 | 20.6 µM [falling, partial curve] | – |
| C[C@@H]1CCC(=O)N(CC[C@H](Sc2ccc(Br)cc2)c2ccccc2)CC1 | 20.6 µM [falling, partial curve, poor fit] | – |
| CCOC(=O)C(=CNc1ccc(Cl)cn1)C(=O)OCC | 22.4 µM [falling, single point] | – |
| Cc1nnc(NC(=O)COc2ccc3c(C)cc(=O)oc3c2)s1 | 20.6 µM [rising, single point] | – |
| Cc1ccc(CNCC(O)(c2ccccc2)c2ccccc2)cc1 | 35.5 µM [falling, single point] | – |
| Cc1ccsc1/C=N/Nc1nc2ccccc2[nH]1 | 7.31 µM [falling, partial curve] | – |
| CCCCN(CC)CCCNC(=S)Nc1ccc2nc(N3CCN(C)CC3)cc(C)c2c1 | 4.47 µM [falling, full curve] | – |
| Cc1ccc(/C=C2/SC(=S)N(CCCC(=O)Nc3cc([N+](=O)[O-])ccc3O)C2=O)cc1 | 1 µM [falling, full curve] | – |
| CCOC(=O)c1cc(C)nc(Sc2ccc(C)cc2)c1C#N | 35.5 µM [rising, single point] | 11.2 µM [falling, partial curve, poor fit] |
| O=C(COc1ccccc1F)NNC(=O)c1cc(Br)ccc1Cl | 16.4 µM [rising, partial curve, poor fit] | – |
| CN1CCCC(C#CC(O)(c2ccccc2)c2ccccc2)C1 (stereo not drawn) | 35.5 µM [rising, single point] | – |

| SMILES | AC50 [1] | AC50 [2] |
| --- | --- | --- |
| O=C(NCC1CCCO1)C1CC(=O)N(c2cccc(Cl)c2)C1 (stereo not drawn) | 6.31 µM [rising, partial curve, poor fit] | – |
| COc1ccc(NC(=O)CC2C(=O)N(c3ccc(Cl)cc3)C(=S)N2CCc2ccncc2)cc1 (stereo not drawn) | 35.5 µM [falling, single point] | – |
| Cc1[nH]c2ccccc2c1/C=C/c1nc2ccccc2c(=O)n1CCO | 7.94 µM [falling, partial curve] | – |
| Cc1[nH]c2ccccc2c(=O)c1C(=O)/C=C/c1ccccc1 | 3.98 µM [falling, full curve] | – |
| C=CCc1cccc(/C=N/c2ncn[nH]2)c1O | 18.4 µM [falling, single point] | 32.6 µM [rising, partial curve, poor fit] |
| COc1ccc2oc(C(=O)OCC(=O)N3CCCC(C)C3)c(C)c2c1 (stereo not drawn) | 8.2 µM [falling, partial curve] | – |
| Cc1cccc(C2C=C(c3ccc(F)cc3)Nc3nc4ccccc4n32)c1 (stereo not drawn) | 8.91 µM [falling, partial curve] | – |
| O=C(NCC1CCCO1)C(c1ccc(F)cc1)N(CCCN1CCOCC1)C(=O)c1ccc(-c2ccccc2)[nH]1 (stereo not drawn) | – | 20 µM [rising, partial curve, poor fit] |
| CC(=O)OCCNc1cc(Sc2nc3ccccc3[nH]2)c2nonc2c1[N+](=O)[O-] | – | 5.17 µM [falling, partial curve, poor fit] |
| CCCC(C)C(=O)Nc1cc([N+](=O)[O-])ccc1Cl (stereo not drawn) | 0.224 µM [rising, full curve, poor fit] | – |
| Nc1c(C(O)(C(F)(F)F)C(F)(F)F)cc(C(O)(C(F)(F)F)C(F)(F)F)c2ccccc12 | 29.1 µM [falling, single point] | – |
| Cc1sc(N)nc1C12CC3CC(CC(C3)C1)C2 | 31.6 µM [rising, partial curve, poor fit] | – |
| CC(C)[C@H](NC(=O)OC(C)(C)C)c1nnc(S(=O)(=O)Cc2c(F)cccc2Cl)o1 | 0.92 µM [falling, full curve, poor fit] | – |
| O=C(NCCc1ccccc1)c1ccc(NC(=O)c2cccnc2)cc1 | 35.5 µM [rising, single point] | – |
| CC(C)c1ccc(NC(=O)c2ccc(Br)o2)cc1 | – | 25.9 µM [falling, partial curve, poor fit] |
| Nc1nnc(SCC(=O)c2ccccc2)s1 | 14.1 µM [falling, single point] | – |
| Oc1ccccc1N=Cc1ccc[nH]1 | 2.31 µM [falling, full curve] | – |
| CCc1nn(CC(=O)NCCCN2CCOCC2)c(=O)c2cc3sccc3n12 | 12.6 µM [rising, partial curve] | – |
| COc1ccc(C2C=C(c3ccc(C)c(C)c3)Nc3ncnn32)c(OC)c1OC (stereo not drawn) | 0.562 µM [rising, full curve] | 7.94 µM [falling, partial curve, poor fit] |
| Cc1cc(C)n2c(Br)c(CSc3nc4ccccc4s3)nc2n1 | 23.1 µM [rising, partial curve, poor fit] | – |
| CCN(CC)c1nc2ccccc2n2cnnc12 | 12.6 µM [rising, partial curve, poor fit] | – |

| SMILES | AC50 [1] | AC50 [2] |
| --- | --- | --- |
| COc1ccc(-c2noc(CN(C)Cc3ccccc3)n2)c(OC)c1OC | 0.501 µM [rising, full curve, poor fit] | – |
| COc1ccc(CNC(=O)COc2ccc(Br)c(C)c2)cc1 | 7.94 µM [falling, partial curve, poor fit] | – |
| C=CCOc1c(CNc2ccc(C(=O)O)cc2)cccc1OCC | 35.5 µM [falling, single point] | – |
| O=[N+]([O-])c1ccc(C=Nc2cccc3ccccc23)s1 | 22.4 µM [rising, single point] | – |
| COc1ccccc1C(OC(=O)c1cccs1)C(=O)NCc1ccco1 (stereo not drawn) | 31.6 µM [falling, single point] | – |
| CC(C)c1nnc(NC(=O)c2nc(S(=O)(=O)Cc3ccccc3F)ncc2Cl)s1 | 22.4 µM [falling, single point] | 11.2 µM [rising, partial curve, poor fit] |
| CNC(=O)C(=O)N/N=C/c1ccc(Br)cc1 | 35.5 µM [rising, partial curve, poor fit] | – |
| CCOC(=O)C1CCCN(C(=O)c2cc(CN3C(=O)c4ccccc4C3=O)ccc2OC)C1 (stereo not drawn) | 29.1 µM [rising, single point] | – |
| CC(=O)c1sc(NC(=O)COc2ccccc2)nc1C | 3.55 µM [falling, full curve, poor fit] | – |
| CCOc1cc(/C=N/NC(=O)c2ccc(-c3csc(Nc4ccc(C)cc4)n3)cc2)ccc1OCC(=O)O | 2 µM [falling, full curve] | – |
| Fc1cccc(NC(=S)N2CCN(c3ccccn3)CC2)c1 | 5.62 µM [rising, single point] | – |
| O=[N+]([O-])c1ccccc1/C=C/C=N/n1c(-c2ccco2)n[nH]c1=S | 35.5 µM [falling, single point] | – |
| COc1ccc(NC(=O)c2ccccc2)cc1NS(=O)(=O)c1ccc(F)cc1 | 13 µM [rising, partial curve, poor fit] | – |
| O=C(Nc1cccc(C(F)(F)F)c1)c1cccnc1NCCO | 28.2 µM [rising, single point] | – |
| CCOC(=O)N1CCN(C(=O)C2CCN(S(=O)(=O)c3ccccc3)CC2)CC1 | 25.9 µM [rising, partial curve, poor fit] | – |
| COc1cc(C(=O)OC(C)C(=O)N2CCCC2)cc2c1OCCO2 (stereo not drawn) | 6.51 µM [rising, single point] | – |
| Cc1n[nH]c(=S)n1/N=C/c1ccc(OCc2ccc(Cl)cc2Cl)cc1 | 29.1 µM [falling, single point] | – |
| CC(CSc1nnnn1-c1ccccc1)Cn1c(N2CCCC2)nc2c1c(=O)[nH]c(=O)n2C (stereo not drawn) | – | 5.17 µM [falling, partial curve, poor fit] |
| O=c1cc(-c2ccccc2)[nH]c2nc3ccccc3n12 | 0.259 µM [falling, full curve] | – |
| COc1ccc(CCNCC(O)COc2ccc(OC)cc2C(C)(C)C)cc1 (stereo not drawn) | 31.6 µM [falling, single point] | – |

In another format: results already given
CCOC(=O)N1CCN(C(=O)C2CCN(S(=O)(=O)c3ccccc3)CC2)CC1
  AC50 [1]: 25.9 µM [rising, partial curve, poor fit]
COc1cc(C(=O)OC(C)C(=O)N2CCCC2)cc2c1OCCO2 (stereo not drawn)
  AC50 [1]: 6.51 µM [rising, single point]
Cc1n[nH]c(=S)n1/N=C/c1ccc(OCc2ccc(Cl)cc2Cl)cc1
  AC50 [1]: 29.1 µM [falling, single point]
